The other results are listed elsewhere or left out. These are further read-outs of the screen, such as a control signal, another cell line or another target. No call is given for them. Compounds called inactive in the main read-out are mostly missing here. Words in brackets tell the shape of the fitted curve; partial curves, single points and poor fits give uncertain potencies.

The record followed here is PubChem BioAssay AID2685 (National Center for Advancing Translational Sciences (NCATS), 2010).

The test in a line: qHTS Assay for Lipid Storage Modulators in Drosophila S3 Cells.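 As to cell number change: cells counted by Cell Tracker Red CMTPX staining in the red channel.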 The settings on record: BODIPY lipid droplet fluorescence, 18-24 h; for cell number change: measured here: cell count max response, cells fed with added oleic acid. The method in brief:
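Drosophila S3 cells loaded with oleic acid (400 uM, as added) and compounds at several concentrations; lipid droplets imaged by 488-nm laser-scanning cytometry, 500–530 nm intensity and object ratio to cell channel. Percent activity normalized to 20 uM Triacsin C.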
In general terms: Quantitative high-throughput screening tests each substance at several concentrations.

[1] abbreviates: measured here: lipid fluorescence (Fed channel) AC50, cells fed with added oleic acid.
Setting [2] is: measured here: cell number channel AC50, cells fed with added oleic acid.

On to `Cc1ccc(CCNC(=O)C2CCCN(S(=O)(=O)c3c(C)noc3/C=C/N(C)C)C2)cc1` (stereo unspecified), for which the cell number change amounted to 6.06%. In addition, the AC50 (in general, the concentration at which the activity in the assay is half-maximal) under setting [1] was 0.731 µM [falling, full curve].
On to `O=C(NCCC1CCCCN1S(=O)(=O)c1ccccc1)C(=O)Nc1ccc(F)cc1F` (stereo unspecified), for which the cell number change is -31%. Under setting [2], the AC50 is 7.31 µM [falling, partial curve, poor fit].
As for `O=C(OCN1C(=O)c2ccccc2C1=O)c1ccc(Cl)nc1`, the cell number change came to 13.8%. Further, the concentration at half-maximal activity (AC50) under setting [1] is 0.082 µM [falling, single point].
As to `Cc1csc(NC(=O)CCn2c(=O)sc3ccccc32)n1`, the cell number change is -16.3%. Further, the AC50 under setting [1] was 4.11 µM [rising, partial curve, poor fit].
For `Cc1ccc(S(=O)(=O)N2CCN(c3nc(C(C)C)c4c(c3C#N)CC(C)(C)OC4)CC2)cc1`, the cell number change came out at 13.5%. For the same compound, under setting [1], the AC50 was 4.11 µM [rising, partial curve, poor fit].
Consider `Cc1nc(N2CCCCCC2)c2ccccc2n1`, for which the cell number change worked out at 1.47%. In addition, the AC50 under setting [1] was 29.1 µM [rising, single point].
Consider `CCC(C)Sc1cc(-c2nc3ccccn3c2NC2CCCCC2)ccc1OC` (stereo unspecified), for which the cell number change turned out to be 6.73%. Besides, under setting [1], the AC50 is 29.1 µM [rising, single point].
On to `O=C(CCNC(=O)c1ccco1)Nc1ccc(SC(F)F)cc1`, for which the cell number change is -11.1%. Further, the AC50 under setting [1] was 32.6 µM [falling, single point].
For `CN1C(=O)C(CC(=O)Nc2ccc(F)cc2)N(Cc2cccs2)C1=S` (stereo unspecified), the cell number change stood at 12.2%. Besides, under setting [1], the AC50 was 6.51 µM [falling, single point].
For the compound `CC(C)c1ccc(NC(=O)NC(C)c2ccc3c(c2)OCO3)cc1` (stereo unspecified), the cell number change was 19.1%. For the same compound, under setting [1], the AC50 is 0.251 µM [rising, full curve, poor fit].
Turning to `NNC(=S)Nc1ccc(Cl)cc1`, the cell number change was found to be 3.08%. For the same compound, the AC50 under setting [2] is 0.00517 µM [falling, full curve, poor fit].
As for `CCOc1ccccc1N(CC(=O)N(C)Cc1ccccc1)S(=O)(=O)c1ccccc1`, the cell number change stood at 19.5%. In addition, the AC50 under setting [1] is 0.231 µM [falling, full curve, poor fit].
With `COc1ccc(NC(=O)CN(c2cc(C)cc(C)c2)S(=O)(=O)c2c(C)n[nH]c2C)cc1`, the cell number change turned out to be 24.3%. For the same compound, the AC50 under setting [1] is 29.1 µM [rising, single point].
On to `Cc1ccc(C)c(Cc2c(C)nc3c(C(=O)N4CCOCC4)cnn3c2C)c1`, for which the cell number change is -37.3%. Further, the AC50 under setting [2] was 29.1 µM [falling, single point].
Regarding `FC(F)(F)c1cc(-c2cccs2)nc2nc(N3CCOCC3)sc12`, the cell number change is -55.3%. For the same compound, the AC50 under setting [1] was 29.1 µM [falling, single point].
Turning to `CC1Cc2cc(-c3csc(NC(=O)Cc4cccs4)n3)ccc2N1S(C)(=O)=O` (stereo unspecified), the AC50 under setting [2] was 6.51 µM [rising, single point] and the AC50 under setting [1] is 6.51 µM [rising, single point].
As for `Cc1ccc(S(=O)(=O)N(C)CC(O)Cn2c3ccccc3c3ccccc32)cc1` (stereo unspecified), the cell number change was -59.7%. For the same compound, the AC50 under setting [2] was 29.1 µM [falling, single point]. In addition, the AC50 under setting [1] was 5.17 µM [rising, single point].
For the compound `CC1(C)CC(=O)C2=C(C1)N(CCN1CCOCC1)C1=C(C(=O)CC(C)(C)C1)C2c1cccc(Cl)c1`, the cell number change turned out to be 22.2%. Besides, the AC50 under setting [1] was 0.103 µM [rising, full curve, poor fit].
Regarding `COc1ccc(S(=O)(=O)N2CCC(NC(=O)OCc3c(Cl)cccc3Cl)CC2)cc1`, the cell number change stood at 54.9%. Further, the AC50 under setting [2] is 20.6 µM [rising, partial curve].
As for `N#Cc1nc(-c2ccc(OCc3ccccc3)cc2)oc1NCCCn1ccnc1`, the cell number change is -32.2%. Also, the AC50 under setting [2] is 9.2 µM [falling, partial curve]. Under setting [1], the half-maximal activity concentration (AC50) is 0.651 µM [rising, single point].
As to `O=C(O)c1ccc(N2CCCCC2)cc1O`, the cell number change was determined as 2.69%. Besides, the AC50 under setting [1] is 0.146 µM [falling, full curve, poor fit].
In the case of `CC(=O)c1cccc(N2Cc3ccccc3C2=NC(=O)CCl)c1`, the cell number change is -50.7%.
For the compound `CC1CCc2sc(C(=O)NNC(=S)NC3CC3)cc2C1` (stereo unspecified), the cell number change was -10.3%. For the same compound, under setting [1], the AC50 was 0.731 µM [falling, full curve].
Consider `c1ccc2cc(CN3CCOCC3)ccc2c1`, for which the cell number change was -22.3%. Moreover, the AC50 under setting [2] is 0.82 µM [falling, full curve, poor fit]. For the same compound, the half-maximal activity concentration (AC50) under setting [1] was 0.731 µM [falling, full curve].
Take `O=C(CN1C(=O)NC2(CCc3ccccc32)C1=O)c1c[nH]c2ccccc12` (stereo unspecified): the cell number change stood at 59.6%. Moreover, the AC50 under setting [2] was 14.6 µM [rising, partial curve].
`CC1(c2ccc3ccccc3c2)NC(=O)N(CC(=O)O)C1=O` (stereo unspecified): the cell number change was found to be 20.4%. For the same compound, the AC50 under setting [1] was 0.058 µM [falling, full curve].
Take `O=C(CCCc1c[nH]c2ccccc12)N1CCOCC1`: the cell number change amounted to 44.6%. Under setting [2], the AC50 is 29.1 µM [rising, single point].
Take `CC1(C)Cc2c(sc3nc(=S)[nH]c(N)c23)CO1`: the cell number change was 7.69%.
With `COc1cc(C)ccc1OCCOCCOc1ccccc1[N+](=O)[O-]`, the cell number change came out at 17%. Besides, the AC50 under setting [1] is 0.164 µM [rising, full curve, poor fit].
Turning to `Cc1c(NC(=O)C2CCCN2S(=O)(=O)c2ccc(Cl)cc2)c(=O)n(-c2ccccc2)n1C` (stereo unspecified), the cell number change was 18.6%.
As to `CC(/C=N/NC(=O)c1cccc(F)c1)=C\c1ccccc1`, the cell number change is 20.4%. Moreover, under setting [1], the AC50 was 22.4 µM [falling, single point].
As for `CCOc1ccccc1N1CCN(CC(=O)N(CC(C)C)c2c(N)n(CC(C)C)c(=O)[nH]c2=O)CC1`, the cell number change came out at 36.1%. Besides, the AC50 under setting [2] is 18.4 µM [rising, single point]. The AC50 under setting [1] is 1.64 µM [rising, single point].
Take `CCN(C(=O)CSc1ncccc1C(=O)O)C1CCCCC1`: the cell number change is -20.2%. The AC50 under setting [1] was 0.731 µM [falling, partial curve].
For the compound `CC1=CCC2C(=O)N(C(C)c3ccccc3)C(=O)C2C1` (stereo unspecified), the AC50 under setting [1] was 18.4 µM [rising, partial curve].
Same read-out and setting: as for `Nc1ccc(O)c(-c2nc3ccccc3s2)c1`, the figure is 16.4 µM [rising, partial curve].
For `CCOc1ccccc1C(=O)NCC(=O)NNC(=O)c1cccc(S(=O)(=O)Nc2ccc(OC)cc2)c1`, the cell number change was 30.1%. Besides, under setting [1], the AC50 is 18.4 µM [rising, single point].
Take `COc1ccc(OC)c(C2N(c3cc(C)on3)C(=O)C3CCCN32)c1` (stereo unspecified): the cell number change is -13.8%. Under setting [1], the AC50 was 0.00461 µM [falling, full curve, poor fit].
Take `O=C(c1cc2ccccc2o1)N1CCN(S(=O)(=O)c2ccccc2)CC1`: the cell number change is -25%. The AC50 under setting [2] is 0.00651 µM [falling, full curve, poor fit].
Consider `CC(=O)c1sc(NC(=O)CCS(=O)(=O)c2ccc(C)cc2)nc1C`, for which the cell number change is -23.7%. In addition, the AC50 under setting [1] was 11.6 µM [falling, partial curve].
`CC(C)NC(=O)NC(=O)COC(=O)c1cccc(S(=O)(=O)N2CCCCC2)c1`: the cell number change is -6.61%.
Take `CC1=C(C)CC(C(=O)Nc2cccc([N+](=O)[O-])c2)C(C(=O)O)C1` (stereo unspecified): the cell number change turned out to be 6.86%. Further, under setting [1], the AC50 is 6.51 µM [rising, partial curve].
With `COc1ccc(S(=O)(=O)Cc2ccc(C(=O)NCc3ccccc3)o2)cc1`, the cell number change was 35.9%. The AC50 under setting [2] is 29.1 µM [rising, single point]. The AC50 under setting [1] was 20.6 µM [falling, single point].
As for `COc1ccc([C@H]2CC(=O)C=C(c3ccc(C)cc3)C2)cc1OC`, the cell number change was -25%. Moreover, the AC50 under setting [2] was 0.00461 µM [falling, full curve, poor fit]. Under setting [1], the AC50 was 0.731 µM [falling, partial curve, poor fit].
As to `O=S(=O)(CCc1ccncc1)c1ccc(Cl)cc1`, the cell number change was -7.69%. The AC50 under setting [2] was 3.66 µM [rising, partial curve].
Consider `O=C(NC1CCCCC1)C1COc2ccccc2O1` (stereo unspecified), for which the AC50 under setting [1] was 6.51 µM [rising, single point].
In the case of `O=C(COC(=O)Cc1c(F)cccc1Cl)NC1CCS(=O)(=O)C1` (stereo unspecified), the cell number change is -81.5%. Moreover, under setting [2], the AC50 is 29.1 µM [falling, single point].
Consider `Cn1c(=O)c2c(ncn2CC(=O)OCC(=O)NC2CCCc3ccccc32)n(C)c1=O` (stereo unspecified), for which the AC50 under setting [1] is 0.291 µM [falling, partial curve, poor fit].
In the case of `COc1ccc(CCCC(=O)Nc2cc(C)ccc2OC)cc1`, the cell number change was -14.4%.
`CC(C)C(=O)OCC(=O)Nc1ccc2c(c1)CCC2`: the cell number change was found to be 42.2%. Moreover, under setting [2], the AC50 was 29.1 µM [rising, single point].
In the case of `COc1ccccc1OCC(=O)Nc1ccc(S(=O)(=O)N(C)c2ccccc2)cc1`, the cell number change worked out at 1.18%.
Turning to `CCc1noc(C)c1C(=O)N(C)CC(=O)Nc1ccccc1C(F)(F)F`, the cell number change was 4.02%.
`Cc1ccc(-c2cc(N)n(-c3ccc(C)cc3)n2)cc1`: the cell number change was -6.44%. Also, the AC50 under setting [1] is 3.66 µM [falling, partial curve].
In the case of `CCOc1c2ccccc2nn1CCO`, the cell number change is -2.64%. In addition, the AC50 under setting [1] was 29.1 µM [rising, single point].
Take `O=C(NOC(=O)c1ccccc1Cl)c1cccs1`: the cell number change was -23.4%. Moreover, the AC50 under setting [2] was 4.61 µM [falling, full curve, poor fit]. The AC50 under setting [1] was 29.1 µM [falling, single point].
As for `Cn1cnnc1SCC(=O)Nc1ccc2nc(SCc3ccccc3)sc2c1`, the cell number change came out at 19.1%. For the same compound, the AC50 under setting [1] is 25.9 µM [rising, single point].
`CCOC(=O)C1CCCN(C(=O)c2cc3cc(Br)ccc3oc2=O)C1` (stereo unspecified): the cell number change was -49.8%. Also, the AC50 under setting [2] was 10.3 µM [falling, partial curve, poor fit]. For the same compound, the AC50 under setting [1] is 29.1 µM [falling, single point].
`Cc1ccc(C)c(N(CC(=O)NCc2ccc3c(c2)OCO3)C(=O)CCC(=O)Nc2ccccn2)c1`: the cell number change is -0.746%.
Take `CN(C)CCSc1nc(O)c(-c2ccccc2)c(=O)n1-c1ccccc1`: the cell number change is -15.6%. The AC50 under setting [1] is 2.59 µM [falling, full curve, poor fit].
Take `Cc1ccc(NC(=O)C2CCN(S(=O)(=O)c3ccc4c(c3)NC(=O)CO4)CC2)cc1`: the cell number change is 47.1%. In addition, under setting [2], the AC50 is 29.1 µM [rising, single point]. Besides, the AC50 under setting [1] is 6.51 µM [rising, single point].
With `CCCC[N+](C)(C)CCC(=O)NC(C)(C)CS(=O)(=O)[O-]`, the AC50 under setting [1] is 29.1 µM [rising, single point].
